Data from US20170122941A1.
These are yes or no findings as the source states them, for the method shown. Some entries that bind do so weakly or less than the wild type.

Chains of the proteins cited; added tags and fusions are not shown. Residues count along the entry.
UniProt P02769, residues 25-607: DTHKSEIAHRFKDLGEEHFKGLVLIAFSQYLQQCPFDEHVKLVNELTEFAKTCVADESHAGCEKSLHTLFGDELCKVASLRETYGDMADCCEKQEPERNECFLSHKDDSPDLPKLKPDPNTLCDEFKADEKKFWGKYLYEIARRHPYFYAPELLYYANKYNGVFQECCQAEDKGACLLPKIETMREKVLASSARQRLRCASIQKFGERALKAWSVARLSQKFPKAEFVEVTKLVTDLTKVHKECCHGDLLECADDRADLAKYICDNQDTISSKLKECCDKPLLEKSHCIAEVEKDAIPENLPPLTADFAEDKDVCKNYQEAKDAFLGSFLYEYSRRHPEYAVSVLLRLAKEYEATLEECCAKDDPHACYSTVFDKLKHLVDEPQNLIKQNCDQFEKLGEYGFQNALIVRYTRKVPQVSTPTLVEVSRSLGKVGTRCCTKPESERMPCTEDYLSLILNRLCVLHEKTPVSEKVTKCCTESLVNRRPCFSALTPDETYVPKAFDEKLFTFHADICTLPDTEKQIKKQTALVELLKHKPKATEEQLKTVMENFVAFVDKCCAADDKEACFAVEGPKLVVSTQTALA

Legend:
[1] = target: bovine serum albumin (bovine) (UniProt P02769); assay: SPR (Biacore 3000): 80 nM purified BSA12 captured on immobilised BSA in flow cell 1, surface regenerated with 10 mM glycine/HCl pH 2.0 after each cycle
[2] = target: bovine serum albumin (bovine) (UniProt P02769); assay: SPR: purified BSA12 captured on immobilised BSA, 17 rounds with regeneration at pH 2.0

binding [1]: binds | binding [2]: binds
B1: BSA12 (VHH)
VHH: QVKLEESGGGLVQVGDSLRLSCAASGRTFSNYTMAWFRQFPGKEREFVAVVSRGGGATDYADSVKGRFTISRDNAKNTMYLQMNSLKTEDTAVYYCAAGTDLSYYYSTKKWAYWGQGTQVTVSS
